Reference: PubChem BioAssay AID1259405 (NCATS, 2018)

- Assay: 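Knock-downs that lift recombinant protein yield in hamster ovary cells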 (primary screen)
- Cells: Chinese hamster CHO-K1 ovary cells with stable secreted eGFP expression
- Reagent: single siRNA against mouse genes, 0.8 pmol siRNA per well (2 µl of 400 nM stock)
- Duration: 3 days
- Read-out: 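Per-well intracellular GFP measured by laser scanning cytometry, plus viability from ATP luminescence, each relative to plate median of non-targeting control wells, in %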
- Scale: GFP, % of control: higher = more GFP per well, higher productivity; viability (ATP), % of control: higher = more viable cells (more ATP)
- Call rule: 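a knock-down is called active if GFP reaches 120% or more of non-targeting control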
In all, the deposit lists about 50,000 reagents; below is a part drawn at random. About 4,000 of them (8%) were called active. 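Mouse siRNA library applied to hamster cells; one well for each siRNA.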

The opening 7 entries, to show the layout:
| target gene | PubChem SID | GFP, % of control | viability (ATP), % of control | activity call |
| --- | --- | --- | --- | --- |
| Cyba (cytochrome b-245, alpha polypeptide) | SID363550259 | 79.7 | 77.5 | inactive |
| Cyba (cytochrome b-245, alpha polypeptide) | SID363564768 | 46.6 | 38.9 | inactive |
| Cyba (cytochrome b-245, alpha polypeptide) | SID363588313 | 83 | 91.5 | inactive |
| Macroh2a1 (macroH2A.1 histone) | SID363545974 | 87.6 | 88.3 | inactive |
| Macroh2a1 (macroH2A.1 histone) | SID363549487 | 79.8 | 80.1 | inactive |
| Macroh2a1 (macroH2A.1 histone) | SID363563293 | 97.8 | 85.8 | inactive |
| Orc1 (origin recognition complex, subunit 1) | SID363569154 | 80.6 | 60.1 | inactive |

Main list, from the first entry:
| target gene | PubChem SID | GFP, % of control | viability (ATP), % of control | activity call |
| --- | --- | --- | --- | --- |
| Cyba (cytochrome b-245, alpha polypeptide) | SID363550259 | 79.7 | 77.5 | inactive |
| Cyba (cytochrome b-245, alpha polypeptide) | SID363564768 | 46.6 | 38.9 | inactive |
| Cyba (cytochrome b-245, alpha polypeptide) | SID363588313 | 83 | 91.5 | inactive |
| Macroh2a1 (macroH2A.1 histone) | SID363545974 | 87.6 | 88.3 | inactive |
| Macroh2a1 (macroH2A.1 histone) | SID363549487 | 79.8 | 80.1 | inactive |
| Macroh2a1 (macroH2A.1 histone) | SID363563293 | 97.8 | 85.8 | inactive |
| Orc1 (origin recognition complex, subunit 1) | SID363569154 | 80.6 | 60.1 | inactive |
| Orc1 (origin recognition complex, subunit 1) | SID363583586 | 76.5 | 86.4 | inactive |
| Casp14 (caspase 14) | SID363574518 | 96.4 | 89.2 | inactive |
| Casp14 (caspase 14) | SID363575574 | 51.4 | 59.2 | inactive |
| Casp14 (caspase 14) | SID363580150 | 60.9 | 59.1 | inactive |
| Chpt1 (choline phosphotransferase 1) | SID363570406 | 110 | 102 | inactive |
| Chpt1 (choline phosphotransferase 1) | SID363579206 | 116 | 162 | inactive |
| Chpt1 (choline phosphotransferase 1) | SID363583078 | 94.6 | 109 | inactive |
| Safb2 (scaffold attachment factor B2) | SID363547524 | 119 | 76.4 | inactive |
| Safb2 (scaffold attachment factor B2) | SID363558293 | 75.3 | 53.6 | inactive |
| Safb2 (scaffold attachment factor B2) | SID363560051 | 89 | 95.6 | inactive |
| Prpf31 (pre-mRNA processing factor 31) | SID363545823 | 50.8 | 80.9 | inactive |
| Prpf31 (pre-mRNA processing factor 31) | SID363549336 | 64.1 | 80.2 | inactive |
| Prpf31 (pre-mRNA processing factor 31) | SID363563142 | 86 | 67.5 | inactive |
| Dnajc11 (DnaJ heat shock protein family (Hsp40) member C11) | SID363572552 | 59.8 | 70 | inactive |
| Dnajc11 (DnaJ heat shock protein family (Hsp40) member C11) | SID363577832 | 97.7 | 80.3 | inactive |
| Dnajc11 (DnaJ heat shock protein family (Hsp40) member C11) | SID363582056 | 110 | 111 | inactive |
| Tmem43 (transmembrane protein 43) | SID363540564 | 76.2 | 93.8 | inactive |
| Tmem43 (transmembrane protein 43) | SID363543015 | 46.7 | 38 | inactive |
| Tmem43 (transmembrane protein 43) | SID363552508 | 56.5 | 67.9 | inactive |
| Slc22a5 | SID363574767 | 48.9 | 50.8 | inactive |
| Slc22a5 | SID363575823 | 25.6 | 27.2 | inactive |
| Slc22a5 | SID363580399 | 85.7 | 64.6 | inactive |
| Tox4 (TOX high mobility group box family member 4) | SID363545792 | 36.1 | 71.6 | inactive |
| Tox4 (TOX high mobility group box family member 4) | SID363549305 | 54.6 | 55.6 | inactive |
| Tox4 (TOX high mobility group box family member 4) | SID363563111 | 74.9 | 77.1 | inactive |
| Zdhhc20 (zinc finger, DHHC domain containing 20) | SID363552275 | 68.6 | 63.1 | inactive |
| Zdhhc20 (zinc finger, DHHC domain containing 20) | SID363585411 | 78.1 | 98.1 | inactive |
| Zdhhc20 (zinc finger, DHHC domain containing 20) | SID363585762 | 91.6 | 117 | inactive |
| Btn2a2 (butyrophilin, subfamily 2, member A2) | SID363581637 | 47.8 | 93 | inactive |
| Btn2a2 (butyrophilin, subfamily 2, member A2) | SID363589131 | 90.7 | 99.2 | inactive |
| Mef2d (myocyte enhancer factor 2D) | SID363573631 | 84.6 | 83.5 | inactive |
| Mef2d (myocyte enhancer factor 2D) | SID363581375 | 88.3 | 72 | inactive |
| Mef2d (myocyte enhancer factor 2D) | SID363583839 | 85.5 | 96.6 | inactive |
| Sema4f | SID363572535 | 42.9 | 64.9 | inactive |
| Sema4f | SID363577815 | 92.5 | 86.1 | inactive |
| Sema4f | SID363582039 | 88.1 | 113 | inactive |
| Stard6 (StAR related lipid transfer domain containing 6) | SID363569713 | 137 | 93.7 | active |
| Stard6 (StAR related lipid transfer domain containing 6) | SID363576753 | 123 | 101 | active |
| Stard6 (StAR related lipid transfer domain containing 6) | SID363578161 | 89.4 | 93.2 | inactive |
| Serinc2 (serine incorporator 2) | SID363544802 | 96.5 | 104 | inactive |
| Serinc2 (serine incorporator 2) | SID363551130 | 72.7 | 96.4 | inactive |
| Serinc2 (serine incorporator 2) | SID363557679 | 78.2 | 62.9 | inactive |
| 4921511C20Rik (RIKEN cDNA 4921511C20 gene) | SID363542486 | 71.1 | 44.1 | inactive |
| 4921511C20Rik (RIKEN cDNA 4921511C20 gene) | SID363551977 | 99.6 | 76.7 | inactive |
| 4921511C20Rik (RIKEN cDNA 4921511C20 gene) | SID363559582 | 104 | 101 | inactive |
| Prl3a1 (prolactin family 3, subfamily a, member 1) | SID363541862 | 98.6 | 91.1 | inactive |
| Prl3a1 (prolactin family 3, subfamily a, member 1) | SID363553454 | 66.1 | 76.4 | inactive |
| Prl3a1 (prolactin family 3, subfamily a, member 1) | SID363566778 | 74.3 | 49.1 | inactive |
| Cd300c2 (CD300C molecule 2) | SID363544199 | 136 | 86.2 | active |
| Cd300c2 (CD300C molecule 2) | SID363550527 | 74.3 | 69 | inactive |
| Cd300c2 (CD300C molecule 2) | SID363557076 | 146 | 86 | active |
